Experimental data reported in the supplement of paper PMC5949888.
± gives the standard deviation of the averaged measurements. Most values lie at the floor of the assay. Slopes are relative: functional sequences can read slightly below zero.

test system: Saccharomyces cerevisiae PS128 hsf1 delta, HSF1(1-493) fusion; test: growth estimate (transactivation domain function in HSF1 fusion, heat-shock survival) (a.u. (slope of normalised read count over time)); higher = stronger growth at 37°C, i.e. more transactivation activity; conditions: library: random library

Substance | growth estimate
RFLFRLPPTSHSI | < -0.25
PCATSVGSQFHVRQRMPKL | -0.2
ADVNCYPYWSLGST | -0.229
DQAALVYCHQGTSLYPVCLC | < -0.25
ILHLLSLSDGPCGD | < -0.25
DVQTGRYMRMPLLCVTSLLS | < -0.25
TSLLKWAHNAL | < -0.25
RTSSRAL | < -0.25
LDVGLIDS | < -0.25
MQYWRLDN | < -0.25
CLVIQAQKTIRC | < -0.25
ELGRGTLFSGNNA | < -0.25
KPV | < -0.25
QSLN | < -0.25
NNSGCQTFVRKMQPGGSNFS | < -0.25
RPALVVTGGRSGLHES | < -0.25
TTAGFNSPGRYNVRILFAAH | < -0.25
RYYPEV | < -0.25
RSGLHAKNVMATDVTGMMSQ | < -0.25
RLVITRNTISRG | < -0.25
LRAAMFFLVAIQVR | < -0.25
SMGDSSRARFL | -0.0026
SFVVVKTPAKKEVTSARLLW | < -0.25

Substance | growth estimate
MCT | < -0.25
LREIMVDMPIPSWFRVMFF | < -0.25
IRPVVDTRVVAQIDDRGVPE | < -0.25
SALGRC | < -0.25
CNWGP | < -0.25
LMGVSRAEMDRDLLRAVKGT | < -0.25
QPSAGLGLYRRNQMEPTTRK | < -0.25
AGVHLSRNLMLGPLRVKSE | < -0.25
LSCSLFQSAPDLQVFYRS | 0.0112
YSANLLRR | < -0.25
LYS | -0.247 ± 0.0037
CGSSSRTESKGLNYLTQPSL | < -0.25
QPTKGQLAATSVIPIPGLL | -0.224
LSRRGI | < -0.25
GLANETAGLQRVPRDYSMVA | < -0.25
ESVKLTAGSRLDSKENRTVR | < -0.25
SLIPKMREILVTSAPPLRTV | < -0.25
LGDTLWLA | -0.248
VLCFLCCRPPRNRG | < -0.25
GRLVAPP | < -0.25
ADDIGLDLAYRSLLSVRNKA | < -0.25
HRCKVGVSWLCLRPG | < -0.25
SQCCVFTIALGAWCVRLKIV | < -0.25

Substance | growth estimate
GYNDQTGPCATHRKNPPSIA | < -0.25
GLH | < -0.25
LGYEEWKLYRAPVCKPLQNE | < -0.25
VWAICYANRAQFRV | < -0.25
HLGRPLKFEFLLESCGAGRR | < -0.25
QVNLSLGRNSPRVTSACTAD | < -0.25
SLQFRCQLWLGSSHDTQG | < -0.25
LRVLVSARNLDALP | < -0.25
ETRIALQLKCLDELLGSL | 0.141
LRKNCSACRGHRIFDRRHRQ | -0.248
AQGSSFLSSNRSDLTGGFCA | < -0.25
FQYCKFITHVLLDLHGRLLT | < -0.25
LTGGPKQLKSHTWCR | < -0.25
GNE | < -0.25
ILHLALN | < -0.25
GCRPR | < -0.25
SKTVVVPIARTLGRGMSHCH | < -0.25
TGKQRCGGVRHKSRKVVHHL | < -0.25
SSRL | < -0.25
RTAKGAMNQGCGTLKGSRRA | < -0.25
DSLVLCTQCIELSH | < -0.25
EKAFVTSQAT | < -0.25
ALGWAR | < -0.25

Substance | growth estimate
NFG | < -0.25
GHMPGARCVTDVGWHRNPNL | < -0.25
LRQPRTGSSLSAAHIGLRGL | < -0.25
PPGRVE | < -0.25
TVALAD | < -0.25
CHYGYFG | < -0.25
ITVRACLLGVIYKSCFTHQP | < -0.25
YIRLHAAERKIFRYRPPWHN | < -0.25
VASWPHSGAPSSIHTSACQG | < -0.25
WILIDGSIRGVVTDGYDPRP | < -0.25
TGLLCVIHAMIVLLVVSGPP | < -0.25
SMWARVMFGVRYR | < -0.25
PGAIRERWGCGHSHFRFWGA | -0.166
KMTYGVCLPTGVIGRCIILR | < -0.25
EILLTL | < -0.25
ERMEQHLSPR | < -0.25
TGKYSRKISLPGVFGRPRMV | < -0.25
VEPKHAGMASLLGPRGPPRS | < -0.25
GEEGICKAVQIGCPVPKS | 0.342
NTCPASDLGGPWPDQENWWI | < -0.25
QVVVPLGFNFSG | < -0.25
VCSVINRTATETSSTPPLKW | < -0.25
NTIVPGWLSVRRGWSSLRSG | < -0.25

Substance | growth estimate
FSASGSGSQHANTT | < -0.25
WIARRGGNSAPRSRCAKVQS | < -0.25
VGSGPHGSCSK | < -0.25
VICPHEWPSRTLPGKFFTSR | < -0.25
GRGAGSSARWASNWPPRVGE | < -0.25
RLAVMSSIDGTYQAT | < -0.25
PSGVGGDTTVAAGGLNMHSI | < -0.25
LWYAIFNS | < -0.25
GVKARTRSAKVATRRALRR | < -0.25
WTS | < -0.25
MLIYNV | < -0.25
RFLCGPRTGLLVD | < -0.25
FVATHHTRVRLADTHSLSRR | < -0.25
RRKVSSRMSRTTGVQRSTTR | < -0.25
RDEPHSMGNGWCANCHLRQK | < -0.25
LADEYFKTVTR | < -0.25
FLCGGSGLQVGAPGVVEPTD | < -0.25
NCWIR | < -0.25
TQLILTKDLARVS | < -0.25
RVLGKIGTRTDALPREPRVL | < -0.25
DATRRCRGGYGRHMSAKKLE | -0.206
INLTRIPVVTANLGFALTRL | < -0.25
MRVRTQPRERQHHEPVLDSA | < -0.25

Reprinted at random: 6 records from the list
Substance | growth estimate
GRGAGSSARWASNWPPRVGE | < -0.25
DATRRCRGGYGRHMSAKKLE | -0.206
PSGVGGDTTVAAGGLNMHSI | < -0.25
GVKARTRSAKVATRRALRR | < -0.25
RFLCGPRTGLLVD | < -0.25
FVATHHTRVRLADTHSLSRR | < -0.25

Additional records:

Substance | growth estimate
SCRRASTVDTERSVPLECVR | < -0.25
SACVAITYLIEYRS | < -0.25
LGAAKAACEGCLGADWKSLF | -0.231
SFRGVLHL | < -0.25
SLQLRMGEIGRRLWNWMLTA | < -0.25
FPGPLTSRGLTAAESNASDS | < -0.25
PWPGVWESTGRPYDVSV | < -0.25
IAKQTGDAFRVAL | < -0.25
GCLKF | < -0.25
SKRYR | < -0.25
ASFGPLCLRLKYDFKRMSMS | < -0.25
SMEFWHVNSVSK | < -0.25
RSSTDKATLG | < -0.25
SRSTVIRCGNRKYRLPIGVP | < -0.25
IVRYRSAECRWIAERRSDPR | < -0.25
YPCLEVLWVRCDSCAHTLAR | < -0.25
ACRVVCRYGSGGCSSPVSHG | < -0.25
GGVCCLRCSLSGLPNRPDGH | < -0.25
NVQSLAIEILAVRTLRQKGR | < -0.25
GFRSESGIRGPVLPTTFAAT | < -0.25
YWLTRGVW | < -0.25
MGVTYLEGLEGLIDDRY | 0.117
SIGVDHLPGGIPDNSARRCE | < -0.25

Substance | growth estimate
PVTGWIDLET | < -0.25
LGRTYAEYANHLSVAPLLCN | < -0.25
GRVIQHKIAGRMHAYLLTSV | < -0.25
DHGKLRLTRRFWCRRDTRQL | < -0.25
LASGAGNGFCELKILAPNTR | < -0.25
ILSRRPGVKSRAYIDSCSML | < -0.25
FGIRVVPASWGPSGWKFLGV | < -0.25
CWSLDYEKMSLRFVIRLTDI | < -0.25
RDPADLTDPLPPAPIVGRNF | < -0.25
VTGSASQR | < -0.25
RYPQLICGRLVSHLMGT | < -0.25
TWTRARTFVLQRVPVGSRRS | < -0.25
RSTFIISARFWLYRVA | < -0.25
SSLYRWRDT | < -0.25
RKGCLEP | < -0.25
SCHMGGICILTSLSVVRWIW | < -0.25
IGGSVGRRAIDVFAK | < -0.25
HGSLSRVYVGQVDN | < -0.25
